According to publication PMC6291992:
These are yes or no findings as the source states them, for the method shown. For part of these data: In cells and extracts the contact can be indirect. Some binding calls cover weakened binding; strength is not graded here. For part of these data: Tags and fused reporters may be left off the sequences shown.

Tests used:
[1] = biological target: T1, Tribbles pseudokinase 2 (TRIB2), endogenous in SW48 cells (human (endogenous in SW48)) (UniProt Q92519); assay: co-IP; SW48 whole cell lysate (NP-40 lysis buffer); immunoprecipitation with anti-TRIB2 or anti-AP4 antibody overnight, protein A/G beads 2~4 h at 4 °C, western blot
T1 sequence: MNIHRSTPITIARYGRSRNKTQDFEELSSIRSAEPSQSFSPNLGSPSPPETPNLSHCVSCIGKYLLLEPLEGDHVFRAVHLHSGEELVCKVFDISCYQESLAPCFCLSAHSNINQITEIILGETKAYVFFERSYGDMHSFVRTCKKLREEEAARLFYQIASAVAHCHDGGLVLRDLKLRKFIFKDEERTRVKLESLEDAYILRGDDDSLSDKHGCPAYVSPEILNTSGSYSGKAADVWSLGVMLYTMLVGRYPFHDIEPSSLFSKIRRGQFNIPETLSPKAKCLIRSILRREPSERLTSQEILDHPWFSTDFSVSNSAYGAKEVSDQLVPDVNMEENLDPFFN

[2] = biological target: T2, Transcription factor activating enhancer-binding protein 4 (AP4), endogenous in SW48 cells (human (endogenous in SW48)) (UniProt Q01664); assay: as above
T2 sequence: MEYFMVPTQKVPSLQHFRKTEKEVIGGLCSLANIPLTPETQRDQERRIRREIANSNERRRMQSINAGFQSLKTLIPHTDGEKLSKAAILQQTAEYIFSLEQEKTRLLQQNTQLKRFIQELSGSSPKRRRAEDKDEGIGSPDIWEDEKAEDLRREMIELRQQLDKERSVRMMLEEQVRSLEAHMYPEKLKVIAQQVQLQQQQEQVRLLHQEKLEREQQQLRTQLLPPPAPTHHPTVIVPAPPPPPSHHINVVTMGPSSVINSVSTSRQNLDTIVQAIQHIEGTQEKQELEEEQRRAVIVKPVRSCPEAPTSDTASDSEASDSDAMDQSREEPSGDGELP

Flag-AP4 = biological target: T3, Flag-AP4 (UniProt Q01664); assay: co-IP; HEK 293T cells co-transfected with Flag-AP4 and His-TRIB2 (or its deletion mutants), 48 h; whole cell lysates immunoprecipitated with anti-Flag or anti-His antibody and blotted with anti-His or anti-Flag antibody
T3 sequence: T2 sequence

His-TRIB2 = biological target: T4, His-TRIB2 (UniProt Q92519); assay: as above
T4 sequence: T1 sequence

GST-TRIB2 fusion protein = biological target: T5, GST-TRIB2 fusion protein (UniProt Q92519); assay: pull-down; purified His-AP4 incubated with GST or GST-TRIB2 bound to Glutathione Sepharose beads at 4 °C overnight; western blot of beads-associated proteins; both purified
T5 sequence: T1 sequence

B1: Transcription factor activating enhancer-binding protein 4 (AP4), endogenous in SW48 cells (protein, UniProt Q01664 1-338)
chain: T2 sequence
[1]
  binding: binds

B2: Tribbles pseudokinase 2 (TRIB2), endogenous in SW48 cells (protein, UniProt Q92519 1-343)
chain: T1 sequence
[2]
  binding: binds

B3: His-TRIB2 (protein, UniProt Q92519 1-343)
chain: T1 sequence
Flag-AP4
  binding: binds

B4: Flag-AP4 (protein, UniProt Q01664 1-338)
chain: T2 sequence
His-TRIB2
  binding: binds

B5: His-AP4 protein (protein, UniProt Q01664 1-338)
chain: T2 sequence
GST-TRIB2 fusion protein
  binding: binds

B6: His-TRIB2 kinase-like domain (KD) (domain or fragment, UniProt Q92519 61-308)
chain: IGKYLLLEPLEGDHVFRAVHLHSGEELVCKVFDISCYQESLAPCFCLSAHSNINQITEIILGETKAYVFFERSYGDMHSFVRTCKKLREEEAARLFYQIASAVAHCHDGGLVLRDLKLRKFIFKDEERTRVKLESLEDAYILRGDDDSLSDKHGCPAYVSPEILNTSGSYSGKAADVWSLGVMLYTMLVGRYPFHDIEPSSLFSKIRRGQFNIPETLSPKAKCLIRSILRREPSERLTSQEILDHPWF
Flag-AP4
  binding: binds
